Measured values from PubChem BioAssay AID256 (DTP/NCI, 2004).
The list is a part of this screen's results and no random one: it gathers tests that were run many times, whatever their T/C, doses with no T/C, and many T/C values between a quarter and a half above the control. Further doses and runs are listed elsewhere. T/C: endpoint of the treated group in % of that of the vehicle group. Some entries give survivors of the animals treated and no T/C: the source holds a T/C of zero for them, seemingly a mark for toxic or unscored doses. Some survivor counts are full or nearly so, which does not show that the dose was tolerated: survival well below the control is almost never listed, so the zero probably covers shortened survival too. Counts of survivors are from the toxicity check (mostly the fifth day) where no day follows; animals may have died later. Schedules are NCI's codes, taken here to give the interval after Q, in days (D) or hours (H), and the number of doses after X. Some schedules carry Z or #; the key to these is not given. For survival time, this PubChem deposit counts one and a half times the control or more as active, and values a quarter to a half above the control carry no call in these data; other NCI protocols may use other cut-offs. Marks such as (2×) count equal records among those shown. Some doses were run more than once; their values stand side by side, smallest first. Some T/C values carry the count of animals alive at the toxicity check (mostly the fifth day); where none is given, no animal had died by that day.

Tested on: CD2F1 mice, L1210 leukemia ip, survival T/C
Assay: NCI In Vivo Anticancer Drug Screen. Data for tumor model L1210 Leukemia (intraperitoneal) in CD2F1 (CDF1) mice
Details: higher T/C = longer survival
Method in brief: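 Ratio T/C, where T is the treated-group value and C the vehicle-dosed control value, from mice implanted with a transplantable tumor.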

[1] = T/C endpoint: mean survival time, dose: 100.0 mg/kg/injection, schedule: Q04DX003 (ip), vehicle: saline with Tween-80
[2] = T/C endpoint: mean survival time, dose: 200.0 mg/kg/injection, schedule: Q04DX003 (ip), vehicle: saline with Tween-80
[3] = T/C endpoint: mean survival time, dose: 400.0 mg/kg/injection, schedule: Q04DX003 (ip), vehicle: saline with Tween-80

N#CC(=C1CCN(Cc2ccccc2)CC1)c1ccccc1
survivor count (T/C endpoint: median survival time, dose: 400.0 mg/kg/injection, schedule: Q04DX002 (ip), vehicle: saline with Tween-80): 1 of 3

CCCCOC(=O)c1ccccc1C(=O)O.CCCCOC(=O)c1ccccc1C(=O)O.[Cu+2]
T/C (T/C endpoint: mean survival time, dose: 25.0 mg/kg/injection, schedule: Q04DX003 (ip), vehicle: saline with Tween-80): 126 % of control [2 of 3 alive] | survivor count (T/C endpoint: mean survival time, dose: 50.0 mg/kg/injection, schedule: Q04DX003 (ip), vehicle: saline with Tween-80): 1 of 3 | survivor count [1]: 0 of 3 | survivor count [2]: 0 of 3 | survivor count [3]: 0 of 3

Cc1c2oc3c(C)ccc(C(=O)NC4C(=O)NC(C(C)C)C(=O)N5CCCC5C(=O)N(C)CC(=O)N(C)C(C(C)C)C(=O)OC4C)c3nc-2c(C(=O)NC2C(=O)NC(C(C)C)C(=O)N3CCCC3C(=O)N(C)CC(=O)N(C)C(C(C)C)C(=O)OC2C)c(N)c1=O (stereo not given)
T/C (T/C endpoint: median survival time, dose: 0.44 mg/kg/injection, schedule: Q01DX009 (ip), vehicle: water, evaluated on day 5): 139 and 147 % of control | T/C (T/C endpoint: median survival time, dose: 0.44 mg/kg/injection, schedule: Q01DX009 (ip), vehicle: water, evaluated on day 31): 139 and 147 % of control | T/C (T/C endpoint: median survival time, dose: 0.64 mg/kg/injection, schedule: Q01DX009 (ip), vehicle: water, evaluated on day 5): 142 and 146 % of control | T/C (T/C endpoint: median survival time, dose: 0.64 mg/kg/injection, schedule: Q01DX009 (ip), vehicle: water, evaluated on day 31): 142 and 146 % of control | T/C (T/C endpoint: median survival time, dose: 0.66 mg/kg/injection, schedule: Q01DX009 (ip), vehicle: water, evaluated on day 5): 146 and 153 % of control | T/C (T/C endpoint: median survival time, dose: 0.66 mg/kg/injection, schedule: Q01DX009 (ip), vehicle: water, evaluated on day 31): 146 and 153 % of control | T/C (T/C endpoint: median survival time, dose: 0.84 mg/kg/injection, schedule: Q01DX009 (ip), vehicle: water, evaluated on day 5): 142 and 162 % of control | T/C (T/C endpoint: median survival time, dose: 0.84 mg/kg/injection, schedule: Q01DX009 (ip), vehicle: water, evaluated on day 31): 142 and 162 % of control | T/C (T/C endpoint: median survival time, dose: 0.96 mg/kg/injection, schedule: Q01DX009 (ip), vehicle: water, evaluated on day 5): 162 and 168 % of control | T/C (T/C endpoint: median survival time, dose: 0.96 mg/kg/injection, schedule: Q01DX009 (ip), vehicle: water, evaluated on day 31): 162 and 168 % of control | T/C (T/C endpoint: median survival time, dose: 1.26 mg/kg/injection, schedule: Q01DX009 (ip), vehicle: water, evaluated on day 5): 153 % of control (2×) | T/C (T/C endpoint: median survival time, dose: 1.26 mg/kg/injection, schedule: Q01DX009 (ip), vehicle: water, evaluated on day 31): 153 % of control (2×)

CC(C)C(=NO)C(C)C
survivor count (T/C endpoint: mean survival time, dose: 400.0 mg/kg/injection, schedule: Q01DX009 (ip), vehicle: saline with Tween-80): 6 of 6

c1cc2[nH]c3ccncc3c2cn1
survivor count (T/C endpoint: mean survival time, dose: 200.0 mg/kg/injection, schedule: Q01DX009 (ip), vehicle: saline sonified): 0 of 6

O=c1[nH]cnc2c1CN(c1ccccc1)C2
survivor count (T/C endpoint: mean survival time, dose: 300.0 mg/kg/injection, schedule: Q01DX001 (ip), vehicle: saline): 0 of 6

CN(C)S(=O)(=O)Oc1cccc([N+](=O)[O-])c1
survivor count [2]: 6 of 6 | survivor count [3]: 1 of 6

NC(CSS(=O)(=O)O)=NCc1cccs1
survivor count (T/C endpoint: mean survival time, dose: 100.0 mg/kg/injection, schedule: Q04DX002 (ip), vehicle: saline with Tween-80): 0 of 3 | survivor count (T/C endpoint: mean survival time, dose: 200.0 mg/kg/injection, schedule: Q04DX002 (ip), vehicle: saline with Tween-80): 0 of 3 | survivor count (T/C endpoint: mean survival time, dose: 400.0 mg/kg/injection, schedule: Q04DX002 (ip), vehicle: saline with Tween-80): 0 of 3

CC1(C)N=C(N)N=C(N)N1c1ccc(C(C#N)CCCc2ccccc2)cc1 (stereo not given)
survivor count (T/C endpoint: mean survival time, dose: 50.0 mg/kg/injection, schedule: Q01DX009 (ip), vehicle: Klucel (hydroxypropylcellulose) (HPC)): 3 of 3 | survivor count (T/C endpoint: mean survival time, dose: 100.0 mg/kg/injection, schedule: Q01DX009 (ip), vehicle: Klucel (hydroxypropylcellulose) (HPC)): 0 of 3 | survivor count (T/C endpoint: mean survival time, dose: 200.0 mg/kg/injection, schedule: Q01DX009 (ip), vehicle: Klucel (hydroxypropylcellulose) (HPC)): 0 of 3

Cc1nc2ccccc2[nH]1
survivor count (T/C endpoint: mean survival time, dose: 400.0 mg/kg/injection, schedule: Q01DX001 (ip), vehicle: saline with Tween-80): 0 of 3

O=P(OCc1ccccc1)(N(CCCl)CCCl)N1CCCC1 (stereo not given)
survivor count (T/C endpoint: mean survival time, dose: 256.0 mg/kg/injection, schedule: Q01DX Z (ip), vehicle: saline): 2 of 6 | survivor count (T/C endpoint: mean survival time, dose: 512.0 mg/kg/injection, schedule: Q01DX Z (ip), vehicle: saline): 0 of 6

CN1CCN(c2ccccc2N)CC1
survivor count [1]: 0 of 6 | survivor count [2]: 0 of 6 | survivor count [3]: 0 of 6
